In PMC10426395:
Results are given in words; binding and its absence hold for the method and conditions named. Binding seen in cells or lysates may run through a third protein. Some results given as binding are weak or reduced against the parent protein; the word gives no strength.

The chains behind the UniProt entries cited, without tags or fusion partners.
UniProt Q9UKT9: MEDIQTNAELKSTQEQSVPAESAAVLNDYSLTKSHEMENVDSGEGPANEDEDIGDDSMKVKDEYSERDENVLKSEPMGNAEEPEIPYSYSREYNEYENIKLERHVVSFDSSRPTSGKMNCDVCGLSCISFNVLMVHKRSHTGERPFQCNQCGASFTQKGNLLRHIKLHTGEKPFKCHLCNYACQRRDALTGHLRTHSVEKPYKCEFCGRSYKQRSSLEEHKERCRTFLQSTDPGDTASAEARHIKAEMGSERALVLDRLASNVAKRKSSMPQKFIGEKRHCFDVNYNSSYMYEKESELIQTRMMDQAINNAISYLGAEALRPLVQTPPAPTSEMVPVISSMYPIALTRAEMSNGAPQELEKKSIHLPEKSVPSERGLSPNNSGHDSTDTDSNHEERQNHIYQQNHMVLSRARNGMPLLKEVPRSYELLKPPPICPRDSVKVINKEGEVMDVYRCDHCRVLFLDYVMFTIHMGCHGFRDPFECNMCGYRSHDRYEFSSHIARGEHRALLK

Molecular target: c-FOS (human (endogenous in MM.1S and KMS12-BM)) (UniProt P01100)
Assay: co-IP; nuclear extracts of MM.1S and KMS12-BM cells; immunoprecipitated with anti-c-FOS antibody on protein A magnetic beads (isotype-matched IgG as control); immunoblot for IKZF1, IKZF3, c-FOS, c-JUN, IRF4

- binding: binds
Substance: IKZF3 (from UniProt Q9UKT9 1-509)
